# Source: article PMC9609004, “Computational Design, Synthesis, and Pharmacological Evaluation of Naproxen-Guaiacol Chimera for Gastro-Sparing Anti-Inflammatory Response by Selective COX2 Inhibition” (Molecules, 2022)
# Test system: acetic-acid-induced writhing
# Test: Analgesic activity, acetic-acid-induced abdominal writhing assay
# Type: in vivo, ICR mice
# Settings: acetic acid 1%, 10 mL/kg i.p.; S-naproxen 15 mg/kg, MAS-1696 equimolar 21.1 mg/kg, 4-allyl guaiacol 15.46 mg/kg; n = 6
# Method: The ICR mice were used to carry out the analgesic activity by using the abdominal writhing assay method as described by us previously. The mice were divided into six various groups (n = 6) and the writhing response was initiated by intraperitoneal (i.p.) administration of a recently formulated acetic acid solution (1%, 10 mL/kg, i.p.). The number of writhes developed after the administration of acetic acid was considered an antinociceptive response and the count of total writhes per animal was also noted in a 20 min period. After 3 min of administration of the acetic acid solution, writhes were counted. % Inhibition = [1 − Nt/Nc] × 100 where Nc—number of writhes in the control group; Nt—number of writhes in the drug-treated group.
structure (smiles),measurement,value
"COc1ccc2cc([C@H](C)C(=O)O)ccc2c1 [Naproxen, S-naproxen]",Analgesic effect (inhibition of writhing),considerable inhibition
